Twelve molecules from article PMC11734925 can be followed below.

Sequences of proteins named here, by UniProt entry; tags and fusion partners are left off. A change or cut given only in a name is not applied to a line headed by its entry.
UniProt B7Z0I8: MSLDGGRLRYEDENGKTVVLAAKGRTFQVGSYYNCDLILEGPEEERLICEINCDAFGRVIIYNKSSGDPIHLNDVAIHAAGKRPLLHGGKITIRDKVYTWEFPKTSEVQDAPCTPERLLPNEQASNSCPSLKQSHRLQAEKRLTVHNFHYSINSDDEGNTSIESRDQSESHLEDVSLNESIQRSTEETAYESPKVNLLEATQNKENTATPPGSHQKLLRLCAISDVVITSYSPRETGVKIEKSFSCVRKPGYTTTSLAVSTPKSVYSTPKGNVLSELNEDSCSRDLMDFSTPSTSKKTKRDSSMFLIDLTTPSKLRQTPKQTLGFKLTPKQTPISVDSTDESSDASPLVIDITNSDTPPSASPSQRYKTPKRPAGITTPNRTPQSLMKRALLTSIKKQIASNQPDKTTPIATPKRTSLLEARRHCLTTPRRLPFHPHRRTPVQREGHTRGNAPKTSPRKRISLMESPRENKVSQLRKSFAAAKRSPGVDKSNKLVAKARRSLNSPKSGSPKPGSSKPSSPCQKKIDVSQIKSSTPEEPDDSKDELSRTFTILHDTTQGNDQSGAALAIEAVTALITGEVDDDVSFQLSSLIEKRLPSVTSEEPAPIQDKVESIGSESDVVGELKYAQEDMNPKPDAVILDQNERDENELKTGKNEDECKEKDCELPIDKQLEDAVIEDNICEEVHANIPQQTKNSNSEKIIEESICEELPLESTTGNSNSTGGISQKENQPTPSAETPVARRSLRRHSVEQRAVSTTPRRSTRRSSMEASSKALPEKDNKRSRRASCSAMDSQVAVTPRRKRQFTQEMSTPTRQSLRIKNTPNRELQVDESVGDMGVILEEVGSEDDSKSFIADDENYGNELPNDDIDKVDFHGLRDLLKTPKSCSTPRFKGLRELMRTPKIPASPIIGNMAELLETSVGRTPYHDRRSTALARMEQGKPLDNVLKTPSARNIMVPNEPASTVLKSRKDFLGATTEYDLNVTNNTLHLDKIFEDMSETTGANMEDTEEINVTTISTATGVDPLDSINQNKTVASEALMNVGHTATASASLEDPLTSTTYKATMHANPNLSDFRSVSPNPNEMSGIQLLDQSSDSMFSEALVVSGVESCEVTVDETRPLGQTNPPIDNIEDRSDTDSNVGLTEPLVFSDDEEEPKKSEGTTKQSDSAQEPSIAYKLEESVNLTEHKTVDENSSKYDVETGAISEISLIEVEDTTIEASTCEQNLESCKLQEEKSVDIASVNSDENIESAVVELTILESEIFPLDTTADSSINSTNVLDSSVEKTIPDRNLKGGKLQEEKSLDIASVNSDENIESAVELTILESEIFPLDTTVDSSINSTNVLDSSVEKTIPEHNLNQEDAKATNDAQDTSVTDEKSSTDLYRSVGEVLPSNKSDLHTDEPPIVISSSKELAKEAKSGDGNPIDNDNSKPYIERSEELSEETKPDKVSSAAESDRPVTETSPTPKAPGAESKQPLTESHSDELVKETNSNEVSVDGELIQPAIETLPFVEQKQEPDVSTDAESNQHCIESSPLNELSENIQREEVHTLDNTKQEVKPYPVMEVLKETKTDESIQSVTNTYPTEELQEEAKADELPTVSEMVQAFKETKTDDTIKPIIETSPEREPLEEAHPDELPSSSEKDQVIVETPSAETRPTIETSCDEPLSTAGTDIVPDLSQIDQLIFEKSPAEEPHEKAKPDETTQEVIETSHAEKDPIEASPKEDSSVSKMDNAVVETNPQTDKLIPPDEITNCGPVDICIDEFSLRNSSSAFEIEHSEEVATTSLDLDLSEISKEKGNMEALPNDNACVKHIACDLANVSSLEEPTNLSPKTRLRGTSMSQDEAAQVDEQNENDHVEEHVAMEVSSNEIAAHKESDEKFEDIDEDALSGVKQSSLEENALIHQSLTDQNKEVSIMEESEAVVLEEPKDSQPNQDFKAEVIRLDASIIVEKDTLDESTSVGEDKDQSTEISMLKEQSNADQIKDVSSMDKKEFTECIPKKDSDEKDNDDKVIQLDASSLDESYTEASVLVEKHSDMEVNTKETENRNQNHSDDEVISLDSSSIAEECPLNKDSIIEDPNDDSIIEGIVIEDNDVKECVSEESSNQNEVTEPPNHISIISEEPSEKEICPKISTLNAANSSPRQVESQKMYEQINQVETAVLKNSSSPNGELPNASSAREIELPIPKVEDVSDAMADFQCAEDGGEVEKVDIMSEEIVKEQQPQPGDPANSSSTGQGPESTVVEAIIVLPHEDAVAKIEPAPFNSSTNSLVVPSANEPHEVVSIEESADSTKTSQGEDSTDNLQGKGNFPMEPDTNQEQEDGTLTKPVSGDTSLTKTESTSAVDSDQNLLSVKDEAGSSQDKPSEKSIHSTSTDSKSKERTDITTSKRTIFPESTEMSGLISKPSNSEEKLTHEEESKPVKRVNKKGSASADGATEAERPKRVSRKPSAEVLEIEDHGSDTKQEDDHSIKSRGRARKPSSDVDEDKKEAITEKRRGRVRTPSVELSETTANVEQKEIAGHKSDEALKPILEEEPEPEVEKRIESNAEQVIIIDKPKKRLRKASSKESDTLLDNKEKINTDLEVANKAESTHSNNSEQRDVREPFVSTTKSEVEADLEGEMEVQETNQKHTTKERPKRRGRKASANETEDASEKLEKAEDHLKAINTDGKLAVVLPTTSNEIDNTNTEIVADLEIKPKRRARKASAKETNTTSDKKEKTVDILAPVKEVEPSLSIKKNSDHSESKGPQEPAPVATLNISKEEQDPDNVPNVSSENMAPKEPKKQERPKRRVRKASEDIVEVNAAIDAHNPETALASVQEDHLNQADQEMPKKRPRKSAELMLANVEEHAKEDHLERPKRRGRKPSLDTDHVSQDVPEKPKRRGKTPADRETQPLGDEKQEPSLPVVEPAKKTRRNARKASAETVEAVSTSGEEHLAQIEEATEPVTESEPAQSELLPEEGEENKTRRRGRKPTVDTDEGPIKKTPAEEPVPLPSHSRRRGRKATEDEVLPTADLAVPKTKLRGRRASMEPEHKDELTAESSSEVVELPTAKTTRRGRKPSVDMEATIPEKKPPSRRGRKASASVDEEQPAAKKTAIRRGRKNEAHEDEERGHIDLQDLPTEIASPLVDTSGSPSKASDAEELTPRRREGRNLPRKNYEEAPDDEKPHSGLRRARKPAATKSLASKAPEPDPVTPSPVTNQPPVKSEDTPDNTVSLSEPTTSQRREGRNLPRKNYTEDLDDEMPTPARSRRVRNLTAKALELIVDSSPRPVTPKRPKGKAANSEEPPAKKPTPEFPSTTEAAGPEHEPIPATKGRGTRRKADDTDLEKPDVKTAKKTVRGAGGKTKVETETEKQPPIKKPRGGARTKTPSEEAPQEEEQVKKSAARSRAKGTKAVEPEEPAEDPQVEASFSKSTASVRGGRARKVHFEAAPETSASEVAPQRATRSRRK

No constants are given. Whether binding was seen depends on the method and setting. In cells and extracts the contact can be indirect. A yes stands for co-enrichment or nearness to the bait. Other partners may have been found. Where a sequence is shown, tags or fusion partners need not be part of it.

The target of this experiment is T1, GFP-D1 (D. melanogaster) (UniProt P22058).
T1 sequence: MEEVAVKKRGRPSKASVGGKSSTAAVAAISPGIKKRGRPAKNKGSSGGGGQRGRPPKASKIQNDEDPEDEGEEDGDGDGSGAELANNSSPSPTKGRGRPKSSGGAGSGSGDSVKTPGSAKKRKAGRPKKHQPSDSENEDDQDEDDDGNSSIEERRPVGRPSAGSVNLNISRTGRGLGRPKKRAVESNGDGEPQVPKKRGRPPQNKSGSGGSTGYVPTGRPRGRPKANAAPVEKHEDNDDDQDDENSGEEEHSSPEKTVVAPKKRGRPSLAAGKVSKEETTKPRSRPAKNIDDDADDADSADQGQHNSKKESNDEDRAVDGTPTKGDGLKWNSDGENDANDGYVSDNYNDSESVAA
The experiment can be described thus: affinity purification with mass spectrometry; GFP-D1 or GFP-Prod captured on anti-GFP nanobody magnetic beads from lysate of nuclei isolated from embryos (450 mM NaCl, 1% Triton-X, benzonase), 90 min at 4°C; washes with 450 mM NaCl; hits against the NLS-GFP control pulldown.

As to “hybrid male rescue (Hmr) (D. melanogaster (endogenous in embryos))”, the binding entry is reported as “binds”. In the case of “CG5599 (D. melanogaster (endogenous in embryos))” it was “binds”; in that of small ovary (Sov) (from UniProt Q9W3W6), “binds”; in that of “POLDIP2 (D. melanogaster (endogenous in embryos))”, “binds”.

With “ADD1 (D. melanogaster (endogenous in embryos))”, the binding result was “binds”. In the case of CG42232 (from UniProt B7Z0I8) it was “binds”; in that of “lethal hybrid rescue (Lhr) (D. melanogaster (endogenous in embryos))”, “binds”; in that of “Stwl (D. melanogaster (endogenous in embryos))”, “binds”.

B1: Xpc (protein, UniProt Q24595 1-1293)
chain: MSDEEEDSVSEGFSASEDEWKPSKDVKGGESSDDDDSDFDELQAEGGAAGSSGRSSAVAGKRGDHKAPSGIKGSSVKKRKPTGQSLRSKLYNKYRPPPKTFPTSPSQQKENTPRASGSKNAKTPNESGARNQHGPADSSSESSVEDYLVNPADLDLHSTFFAGGQKEKSPAPQFDCNAGITNLSDSGSEDNNESSFEDKAGNAFDFRGLLENANSLERTRDALSKRNVTATPPRSQAATMDVNALLALGENQNYQSVEVEEREGNQRKKAGRGAPAAPPTLDEPSRLSKTKSTRIKRHTKTRPVSTVVANAGDTDDSDFEEVADADLSSDQDDGETPNISGDLEIRVGLEGLRPTKEQKTQHELEMALKRRLNRDIKDRQILLHKVSLMCQIARSLKYNRLLSESDSLMQATLKLLPSRNAYPTERGTELKYLQSFVTWFKTSIKLLSPNLYSAQSPATKEAILEALLEQVKRKEARCKQDMIFIFIALARGMGMHCRLIVNLQPMPLRPAASDLIPIKLRPDDKNKSQTVESERESEDEKPKKDKKAGKPAEKESSKSTISKEAEKKNNAKKAEAKPLSKSTTKGSETTKSGTVPKVKKELSLSSKLVEKSKHQKAYTSSKSDTSFDEKPSTSSSSKCLKEEYSELGLSKKLLKPTLSSKLVLKSKNQSSFSSNKSDTSFEENPSTSSSSKSLKEETAKLSSSKLEDKKVASPAETKTKVQSSLLKRVTTQNISESGDSKKPKVAPVDTFSPVAGRTRRATVKPKTEEKPQVVGSPVIPKLMLSKVKQLNAKHSDTENASPANKHLQEQRNTRETRSRSKSPKVLISPSFLKKKSDGADSTSDPQKHQMAPETKARISPNFLSEALPARQLRSRGQKASSLAIPQLDGGDDVPLPKKRPKLEKLKNSQDSDEVFEPAKPVKKAPVLPKSVQNLRKDRRVMSTDDEGGSRLNRKTDASDMWVEVWSDVEEQWICIDLFKGKLHCVDTIRKNATPGLAYVFAFQDDQSLKDVTARYCASWSTTVRKARVEKAWLDETIAPYLGRRTKRDITEDDQLRRIHSDKPLPKSISEFKDHPLYVLERHLLKFQGLYPPDAPTLGFIRGEAVYSRDCVHLLHSREIWLKSARVVKLGEQPYKVVKARPKWDRLTRTVIKDQPLEIFGYWQTQEYEPPTAENGIVPRNAYGNVELFKDCMLPKKTVHLRLPGLMRICKKLNIDCANAVVGFDFHQGACHPMYDGFIVCEEFREVVTAAWEEDQQVQVLKEQEKYETRVYGNWKKLIKGLLIRERLKKKYNF
In the case of B1, the binding entry is recorded as “binds”.

B2: Elg1 (protein, UniProt Q86BP6 1-1162)
chain: MTDVNCLTSEHIAPTTTTASPPGTPSKNAATDPVEPTSPFVLRAPPSAKSKLILQNMEEVLNSVKQKHREKHKRKREEKRRAALMEDQKSTTEEVKANAKEKPQPLREKSSQENGLKNGRRRSSPLKSSTPVADNQSIMKHFAKAGKPENVGVSPVSTAKPKPTTNVFEFMMNARNRSLGVNEGGAESPADQEIGSEAATPTTKRKLLLQEWNERKGGAKRRLADEARGEFIELQMEQRAKRLRKMLTKTDAKEVTAPSSAPTDPTVKRLRGRPRSRRISSMDAQNQIVESKPPVVKAKDQDPGTEELLSKLSSPTKKRDSLLGYFPKVESPKELAEKVIIAIETPPMETPKRRTLRRKSQQETPIVAESTPSSRPRRSCVGKARYDYDLETSPGKQQKAKPQKADESVEIIDLDNSNPAATPKKLAPLFVRQLPKPSPDPSVLKARQAFLQSGVPDKIRQEQIRQKNFDQMYEDSYEVFPRLAHIGCESFGSKNGPLDIPFALRAEEEYSEVTKALPANKRRAKASSITSCLPADFTSSKTLNKFNYATLPQLENKRGFVKLWKNDFDRFPTFKCYNQMREKYRHFSAIDSAQDTQQMGESLVVTRRTRRSMEQNMAQNEEEAKPPPSAPNGELLFTEKYKPLLFEQVLVNLTPVQELREFLSSWSGNGGSNRNSQGMDDTFDMSNDSASMGSSSNTMVLVGPSSSGKTNAVFTLANDMNFNVLEINAGMKRTGKKLIQELQEATQSHQIRKDGKAGGGSSQQLLQKLQKSGLKAKAAAVEPPSEVRKSLILIEDADILFDNLDAGFTDAIYTLAASSKRPVIVVATDPNCAHLQRLMQQNIIHFQAPNALNISRFLAVLSLMENCPIELDELISVYLYNQQNLRKTLMELQFYIQSGGDSTRDRTGGGIKSPTKTSNSRLATVDGSRIHQRFFEFFTSPQNVQYRIPFPVDFSLLRLNLPDLMASSAMLKEQQAAGGGSRTAAKRKSRSPKKAWLSSATGQKSDGHSSSLATLASFYDNISVASLMDSDCSDRLQWHLSEEIGHLLVEQALQTGLATKECPYNLFDKPVQRFSICQHLGNGVLRSDSAKSLDFEPALRSICRSEKERAGLERKSSRFYHYLRNHTVNVTSFTTDYFDTACSTFQSAAPSSEPTMEAEPKD
Take B2: the binding result is listed as “binds”.

B3: Top2 (protein, UniProt P15348 1-1447)
chain: MENGNKALSIEQMYQKKSQLEHILLRPDSYIGSVEFTKELMWVYDNSQNRMVQKEISFVPGLYKIFDEILVNAADNKQRDKSMNTIKIDIDPERNMVSVWNNGQGIPVTMHKEQKMYVPTMIFGHLLTSSNYNDDEKKVTGGRNGYGAKLCNIFSTSFTVETATREYKKSFKQTWGNNMGKASDVQIKDFNGTDYTRITFSPDLAKFKMDRLDEDIVALMSRRAYDVAASSKGVSVFLNGNKLGVRNFKDYIDLHIKNTDDDSGPPIKIVHEVANERWEVACCPSDRGFQQVSFVNSIATYKGGRHVDHVVDNLIKQLLEVLKKKNKGGINIKPFQVRNHLWVFVNCLIENPTFDSQTKENMTLQQKGFGSKCTLSEKFINNMSKSGIVESVLAWAKFKAQNDIAKTGGRKSSKIKGIPKLEDANEAGGKNSIKCTLILTEGDSAKSLAVSGLGVIGRDLYGVFPLRGKLLNVREANFKQLSENAEINNLCKIIGLQYKKKYLTEDDLKTLRYGKVMIMTDQDQDGSHIKGLLINFIHTNWPELLRLPFLEEFITPIVKATKKNEELSFYSLPEFEEWKNDTANHHTYNIKYYKGLGTSTSKEAKEYFQDMDRHRILFKYDGSVDDESIVMAFSKKHIESRKVWLTNHMDEVKRRKELGLPERYLYTKGTKSITYADFINLELVLFSNADNERSIPSLVDGLKPGQRKVMFTCFKRNDKREVKVAQLSGSVAEMSAYHHGEVSLQMTIVNLAQNFVGANNINLLEPRGQFGTRLSGGKDCASARYIFTIMSPLTRLIYHPLDDPLLDYQVDDGQKIEPLWYLPIIPMVLVNGAEGIGTGWSTKISNYNPREIMKNLRKMINGQEPSVMHPWYKNFLGRMEYVSDGRYIQTGNIQILSGNRLEISELPVGVWTQNYKENVLEPLSNGTEKVKGIISEYREYHTDTTVRFVISFAPGEFERIHAEEGGFYRVFKLTTTLSTNQMHAFDQNNCLRRFPTAIDILKEYYKLRREYYARRRDFLVGQLTAQADRLSDQARFILEKCEKKLVVENKQRKAMCDELLKRGYRPDPVKEWQRRIKMEDAEQADEEDEEEEEAAPSVSSKAKKEKEVDPEKAFKKLTDVKKFDYLLGMSMWMLTEEKKNELLKQRDTKLSELESLRKKTPEMLWLDDLDALESKLNEVEEKERAEEQGINLKTAKALKGQKSASAKGRKVKSMGGGAGAGDVFPDPDGEPVEFKITEEIIKKMAAAAKVAQAAKEPKKPKEPKEPKVKKEPKGKQIKAEPDASGDEVDEFDAMVEGGSKTSPKAKKAVVKKEPGEKKPRQKKENGGGLKQSKIDFSKAKAKKSDDDVEEVTPRAERPGRRQASKKIDYSSLFSDEEEDGGNVGSDDDGNASDDDSPKRPAKRGREDESSGGAKKKAPPKKRRAVIESDDDDIEIDEDDDDDSDFNC
B3: the binding entry is recorded as “binds”.

B4: mei-S332 (protein, UniProt Q24141 1-401)
chain: MGSKVEQQYKLLNAELMDQVQKQRLEIGEYRKRVISLEREIMDIREEHVLQNHRQRMENISIVRSLMLSLNVDSDSLAVRQEPAPAAQINRPSGPRRSSREICKDMRRTCALARTTRPISPRRSSSVTSTVSSTSRRSSAEVQSEVVTTRIPEDRRANKPTPPPRRPAELVFDEDDSDDDFDEAVSPVEETQTEQNEENNRLFSIIEENGSEGESTDSSSSCEAIYCDTTFESSPPNAQVTVTPSGRALREVDTNIPVAVSLSRGKETGKGSWLAISVAVEDSPQEPSIQCPRLAVTRPSQSSGIFPDVNGLTPRRSLFNGIGKMAGSTSTPKSFLVEEMPSIRTRSRTAANKKSENTDMSSSFCNNSARPSRSCRPTSLVEPSLKNKLRNGSKGKAKAKK
With B4, the binding entry is “binds”.
